Assay results published in patent US20030203451A1.
No constants are given. Whether binding was seen depends on the method and setting. For some of these results: In cells and extracts the contact can be indirect. Some results given as binding are weak or reduced against the parent protein; the word gives no strength. For some of these results: Tags and fused reporters may be left off the sequences shown.

Chains of the proteins cited; added tags and fusions are not shown. Lines headed by an entry give the natural chain unless they say otherwise; changes in a name come on top.
UniProt Q8NAC3: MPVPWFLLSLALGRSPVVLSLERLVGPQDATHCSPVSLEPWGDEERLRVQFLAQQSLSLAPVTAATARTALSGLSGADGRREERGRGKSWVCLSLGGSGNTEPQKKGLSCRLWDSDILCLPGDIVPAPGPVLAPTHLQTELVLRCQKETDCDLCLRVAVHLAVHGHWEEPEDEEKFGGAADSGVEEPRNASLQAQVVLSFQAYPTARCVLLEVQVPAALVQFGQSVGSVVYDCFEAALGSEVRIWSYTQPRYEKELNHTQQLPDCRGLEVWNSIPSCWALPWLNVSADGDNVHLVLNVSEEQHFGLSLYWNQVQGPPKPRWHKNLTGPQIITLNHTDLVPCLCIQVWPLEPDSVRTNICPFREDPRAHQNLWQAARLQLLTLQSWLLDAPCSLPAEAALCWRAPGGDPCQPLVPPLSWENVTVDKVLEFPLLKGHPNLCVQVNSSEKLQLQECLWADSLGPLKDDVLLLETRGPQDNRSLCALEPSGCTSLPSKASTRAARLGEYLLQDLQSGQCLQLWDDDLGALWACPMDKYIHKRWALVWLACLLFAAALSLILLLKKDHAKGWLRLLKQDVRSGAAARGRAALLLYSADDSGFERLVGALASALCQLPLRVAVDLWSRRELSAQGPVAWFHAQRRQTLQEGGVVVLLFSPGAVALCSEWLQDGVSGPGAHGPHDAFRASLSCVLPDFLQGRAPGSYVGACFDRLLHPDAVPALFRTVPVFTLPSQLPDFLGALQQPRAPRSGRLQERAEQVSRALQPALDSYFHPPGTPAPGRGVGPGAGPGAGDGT

What was measured:
[1] = target: T1, His-epitope tagged IL-17RH1 receptor extracellular domain (human) (UniProt Q9NRM6); assay: Protein A pull-down of ligand-Fc, Western blot for His-tagged IL-17RH1 ECD
T1 sequence: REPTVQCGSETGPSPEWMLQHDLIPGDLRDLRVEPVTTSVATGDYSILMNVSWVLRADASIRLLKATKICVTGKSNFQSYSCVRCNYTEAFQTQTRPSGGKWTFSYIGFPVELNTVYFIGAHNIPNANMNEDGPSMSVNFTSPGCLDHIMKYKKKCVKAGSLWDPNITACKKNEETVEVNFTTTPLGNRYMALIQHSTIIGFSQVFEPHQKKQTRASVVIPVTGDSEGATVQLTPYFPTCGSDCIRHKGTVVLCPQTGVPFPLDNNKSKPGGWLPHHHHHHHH

[2] = target: T1, His-epitope tagged IL-17RH1 receptor extracellular domain (human); assay: pull-down of His-tagged IL-17RH1 ECD with ligand-Fc and Protein A beads, Western blot with anti-His antibody
[3] = target: T2, PRO5801 (human IL-17RH1 receptor), form not specified (human) (UniProt Q9NRM6); assay: summary scheme of receptor-ligand specificities (FIG. 35)
T2 sequence: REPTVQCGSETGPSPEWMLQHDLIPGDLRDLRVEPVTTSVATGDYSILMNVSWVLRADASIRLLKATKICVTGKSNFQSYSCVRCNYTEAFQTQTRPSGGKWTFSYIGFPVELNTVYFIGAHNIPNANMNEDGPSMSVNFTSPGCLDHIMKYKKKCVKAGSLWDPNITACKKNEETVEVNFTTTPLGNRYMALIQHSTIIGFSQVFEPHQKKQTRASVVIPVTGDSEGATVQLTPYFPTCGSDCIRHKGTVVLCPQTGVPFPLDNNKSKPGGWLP

[4] = target: T2, PRO5801 (human IL-17RH1 receptor), form not specified (human); assay: receptor/ligand screen of Example 20 (immunoadhesin on transfected cells, or tagged ligand co-precipitated with receptor-Fc)
[5] = target: T2, PRO5801 (human IL-17RH1 receptor), form not specified (human); assay: receptor/ligand screen of Example 20
[6] = target: T3, human IL-17 receptor (IL-17R; designated PRO1), form not specified (human), Q96F46; assay: receptor/ligand screen of Example 20; conditions: remark: other sources report otherwise
[7] = target: T3, human IL-17 receptor (IL-17R; …); assay: summary scheme of receptor-ligand specificities (FIG. 35); conditions: remark: other sources report otherwise
[8] = target: T4, PRO20040 (human IL-17RH2 receptor), form not specified (human) (UniProt Q8NAC3); assay: receptor/ligand screen of Example 20
T4 sequence: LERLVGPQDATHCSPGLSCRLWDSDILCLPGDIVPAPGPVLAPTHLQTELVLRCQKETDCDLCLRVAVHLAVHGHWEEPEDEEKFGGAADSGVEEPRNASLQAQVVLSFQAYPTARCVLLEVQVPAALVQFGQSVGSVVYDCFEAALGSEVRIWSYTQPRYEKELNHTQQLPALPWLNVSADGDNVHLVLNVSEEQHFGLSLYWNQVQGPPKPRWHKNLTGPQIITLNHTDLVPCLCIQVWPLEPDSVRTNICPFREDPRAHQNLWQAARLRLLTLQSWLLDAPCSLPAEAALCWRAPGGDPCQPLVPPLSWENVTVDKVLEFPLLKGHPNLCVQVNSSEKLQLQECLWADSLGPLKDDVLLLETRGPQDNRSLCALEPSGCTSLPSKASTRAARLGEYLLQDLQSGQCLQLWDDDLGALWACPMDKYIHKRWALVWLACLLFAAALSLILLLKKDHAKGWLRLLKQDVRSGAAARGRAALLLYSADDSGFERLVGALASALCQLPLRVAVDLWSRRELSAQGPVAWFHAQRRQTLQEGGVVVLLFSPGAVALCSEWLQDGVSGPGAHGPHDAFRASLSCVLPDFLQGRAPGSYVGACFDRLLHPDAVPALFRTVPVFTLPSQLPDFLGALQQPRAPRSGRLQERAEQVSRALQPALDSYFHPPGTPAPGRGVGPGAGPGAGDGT

[9] = target: T4, PRO20040 (human IL-17RH2 receptor), form not specified (human); assay: summary scheme of receptor-ligand specificities (FIG. 35)
[10] = target: T4, PRO20040 (human IL-17RH2 receptor), form not specified (human); assay: receptor/ligand screen of Example 20 (FIG. 35)

B1: IL-17E-Fc fusion protein (IL-17E immunoadhesin) (Fc fusion, not shown: a dimerising Fc or GST)
chain: YSHWPSCCPSKGQDTSEELLRWSTVPVPPLEPARPNRHPESCRASEDGPLNSRAISPWRYELDRDLNRLPQDLYHARCLCPHCVSLQTGSHMDPRGNSELLYHNQTVFYRRPCHGEKGTHKGYCLERRLYRVSLACVCVRPRVMG
binding [1]: binds | binding [2]: binds

B2: IL-17B.Fc fusion protein (Fc fusion, not shown: a dimerising Fc or GST)
chain: QPRSPKSKRKGQGRPGPLAPGPHQVPLDLVSRMKPYARMEEYERNIEEMVAQLRNSSELAQRKCEVNLQLWMSNKRSLSPWGYSINHDPSRIPVDLPEARCLCLGCVNPFTMQEDRSMVSVPVFSQVPVRRRLCPPPPRTGPCRQRAVMETIAVGCTCIF
binding [1]: binds | binding [2]: binds

B3: PRO1031 (human IL-17B ligand), as tested in the Example 20 screen (ligand, not shown: a dimerising Fc or GST)
chain: B2 chain
binding [3]: binds | binding [4]: binds

B4: PRO10272 (human IL-17E ligand), as tested in the Example 20 screen (ligand, not shown: a dimerising Fc or GST)
chain: B1 chain
binding [5]: binds | binding [3]: binds

B5: PRO20110 (human IL-17F ligand), as tested in the Example 20 screen, Q96PD4 31-163 (ligand, not shown: a dimerising Fc or GST)
chain: RKIPKVGHTFFQKPESCPPVPGGSMKLDIGIINENQRVSMSRNIESRSTSPWNYTVTWDPNRYPSEVVQAQCRNLGCINAQGKEDISMNSVPIQQETLVVRRKHQGCSVSFQLEKVLVTVGCTCVTPVIHHVQ
binding [6]: binds | binding [7]: binds

B6: PRO20110 (human IL-17F ligand), as tested in the Example 20 screen (ligand, not shown: a dimerising Fc or GST)
chain: B5 chain
binding [8]: binds | binding [9]: binds | binding [10]: binds
